The text below walks through data of the supplement of paper PMC12819154, “High-throughput peptide-centric local stability assay extends protein–ligand identification to membrane proteins, tissues and bacteria” (Nature Structural & Molecular Biology, 2025).

Amino acid sequences for entries named in this document (tags omitted). A change or cut given only in a name is not applied to a line headed by its entry.
UniProt P0DMB2: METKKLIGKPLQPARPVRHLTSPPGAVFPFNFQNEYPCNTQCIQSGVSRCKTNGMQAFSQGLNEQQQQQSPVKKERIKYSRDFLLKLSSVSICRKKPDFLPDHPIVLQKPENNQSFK
UniProt P06400: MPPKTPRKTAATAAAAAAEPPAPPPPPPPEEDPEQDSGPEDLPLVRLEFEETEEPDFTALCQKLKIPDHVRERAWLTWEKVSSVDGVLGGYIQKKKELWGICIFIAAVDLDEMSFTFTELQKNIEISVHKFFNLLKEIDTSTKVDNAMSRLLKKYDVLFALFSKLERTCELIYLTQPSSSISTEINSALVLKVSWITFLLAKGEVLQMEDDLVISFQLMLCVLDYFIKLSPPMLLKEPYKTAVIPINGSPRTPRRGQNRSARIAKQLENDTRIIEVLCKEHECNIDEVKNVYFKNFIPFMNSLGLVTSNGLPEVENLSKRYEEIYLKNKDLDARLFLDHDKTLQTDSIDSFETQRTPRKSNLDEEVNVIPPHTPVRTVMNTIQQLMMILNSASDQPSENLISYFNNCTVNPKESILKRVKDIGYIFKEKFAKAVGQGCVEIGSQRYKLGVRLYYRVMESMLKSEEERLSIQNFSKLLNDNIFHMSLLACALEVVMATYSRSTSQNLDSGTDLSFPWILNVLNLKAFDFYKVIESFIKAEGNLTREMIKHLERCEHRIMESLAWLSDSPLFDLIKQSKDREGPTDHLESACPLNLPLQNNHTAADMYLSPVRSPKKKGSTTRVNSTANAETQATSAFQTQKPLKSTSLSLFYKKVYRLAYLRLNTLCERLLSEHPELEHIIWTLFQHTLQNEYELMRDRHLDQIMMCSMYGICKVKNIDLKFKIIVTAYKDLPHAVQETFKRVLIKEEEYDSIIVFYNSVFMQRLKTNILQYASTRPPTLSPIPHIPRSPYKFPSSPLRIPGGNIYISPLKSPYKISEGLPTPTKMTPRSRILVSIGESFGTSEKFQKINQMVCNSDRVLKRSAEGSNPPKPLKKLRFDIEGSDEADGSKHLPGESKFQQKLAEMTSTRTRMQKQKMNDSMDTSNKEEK
UniProt P08603, whole entry: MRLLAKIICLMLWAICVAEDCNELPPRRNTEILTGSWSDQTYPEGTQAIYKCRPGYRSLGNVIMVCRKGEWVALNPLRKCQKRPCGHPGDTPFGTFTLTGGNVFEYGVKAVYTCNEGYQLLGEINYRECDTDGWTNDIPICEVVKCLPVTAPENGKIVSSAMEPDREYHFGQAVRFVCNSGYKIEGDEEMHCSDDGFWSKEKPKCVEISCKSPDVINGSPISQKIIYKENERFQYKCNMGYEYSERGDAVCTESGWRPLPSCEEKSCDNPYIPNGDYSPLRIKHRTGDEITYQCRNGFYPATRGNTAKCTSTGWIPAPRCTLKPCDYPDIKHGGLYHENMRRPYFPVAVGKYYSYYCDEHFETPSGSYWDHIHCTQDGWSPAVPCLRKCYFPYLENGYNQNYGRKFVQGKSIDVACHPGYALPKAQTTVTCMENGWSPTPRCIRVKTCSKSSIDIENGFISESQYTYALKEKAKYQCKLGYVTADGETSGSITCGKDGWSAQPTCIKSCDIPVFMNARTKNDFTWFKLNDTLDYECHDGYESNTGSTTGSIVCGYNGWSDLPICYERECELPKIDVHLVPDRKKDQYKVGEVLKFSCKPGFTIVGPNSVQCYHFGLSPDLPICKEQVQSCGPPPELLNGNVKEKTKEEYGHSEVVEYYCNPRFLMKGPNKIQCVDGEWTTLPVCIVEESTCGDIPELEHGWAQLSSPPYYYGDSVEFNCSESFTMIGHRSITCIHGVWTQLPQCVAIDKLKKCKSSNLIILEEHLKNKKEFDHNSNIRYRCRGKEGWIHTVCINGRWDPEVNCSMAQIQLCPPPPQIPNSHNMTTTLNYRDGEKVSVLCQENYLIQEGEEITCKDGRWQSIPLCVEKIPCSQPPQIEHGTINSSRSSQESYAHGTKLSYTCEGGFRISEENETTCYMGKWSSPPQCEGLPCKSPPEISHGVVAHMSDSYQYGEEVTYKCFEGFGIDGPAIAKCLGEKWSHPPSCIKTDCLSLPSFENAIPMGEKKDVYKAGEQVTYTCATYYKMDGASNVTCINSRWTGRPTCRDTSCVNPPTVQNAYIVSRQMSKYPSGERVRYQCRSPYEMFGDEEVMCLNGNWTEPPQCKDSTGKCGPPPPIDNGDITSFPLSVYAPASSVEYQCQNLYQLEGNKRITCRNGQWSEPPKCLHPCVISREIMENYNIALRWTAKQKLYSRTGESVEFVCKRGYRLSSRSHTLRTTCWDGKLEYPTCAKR
UniProt P11441: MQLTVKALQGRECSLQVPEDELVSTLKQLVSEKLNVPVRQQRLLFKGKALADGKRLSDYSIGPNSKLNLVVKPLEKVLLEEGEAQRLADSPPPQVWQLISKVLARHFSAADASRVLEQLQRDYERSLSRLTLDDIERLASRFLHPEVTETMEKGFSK
UniProt P04080: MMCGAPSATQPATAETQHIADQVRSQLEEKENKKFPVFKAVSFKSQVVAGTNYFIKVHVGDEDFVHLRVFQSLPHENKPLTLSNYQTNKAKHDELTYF
UniProt P02008: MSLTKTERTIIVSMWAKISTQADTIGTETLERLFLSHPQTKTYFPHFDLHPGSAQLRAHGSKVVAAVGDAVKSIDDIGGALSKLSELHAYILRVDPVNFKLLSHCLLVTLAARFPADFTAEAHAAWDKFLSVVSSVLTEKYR
UniProt P02654: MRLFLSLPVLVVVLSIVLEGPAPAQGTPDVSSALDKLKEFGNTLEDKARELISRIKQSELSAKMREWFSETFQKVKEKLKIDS
UniProt P05976, whole entry: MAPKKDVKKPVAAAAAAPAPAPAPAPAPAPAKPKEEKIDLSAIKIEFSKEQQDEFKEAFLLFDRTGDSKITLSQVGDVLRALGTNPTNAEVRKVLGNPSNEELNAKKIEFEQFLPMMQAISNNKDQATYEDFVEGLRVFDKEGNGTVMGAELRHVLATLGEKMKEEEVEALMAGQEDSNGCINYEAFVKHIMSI
UniProt P07225: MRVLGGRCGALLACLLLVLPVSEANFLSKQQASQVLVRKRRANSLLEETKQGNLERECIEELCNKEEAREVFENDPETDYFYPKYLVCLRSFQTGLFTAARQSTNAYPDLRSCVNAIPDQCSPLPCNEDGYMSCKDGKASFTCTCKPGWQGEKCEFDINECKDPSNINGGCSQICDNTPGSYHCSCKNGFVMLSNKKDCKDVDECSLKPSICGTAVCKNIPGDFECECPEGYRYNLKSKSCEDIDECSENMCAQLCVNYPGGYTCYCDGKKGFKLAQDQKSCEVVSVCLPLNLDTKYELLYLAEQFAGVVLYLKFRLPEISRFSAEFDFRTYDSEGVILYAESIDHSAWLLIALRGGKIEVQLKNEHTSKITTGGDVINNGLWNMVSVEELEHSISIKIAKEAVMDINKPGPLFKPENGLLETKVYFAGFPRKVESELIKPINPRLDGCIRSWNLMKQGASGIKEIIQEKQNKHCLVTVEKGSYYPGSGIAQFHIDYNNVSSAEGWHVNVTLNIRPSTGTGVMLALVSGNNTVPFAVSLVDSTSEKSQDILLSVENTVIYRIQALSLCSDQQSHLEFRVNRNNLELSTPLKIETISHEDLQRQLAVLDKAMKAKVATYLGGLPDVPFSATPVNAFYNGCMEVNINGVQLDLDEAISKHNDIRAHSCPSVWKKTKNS
UniProt P07602: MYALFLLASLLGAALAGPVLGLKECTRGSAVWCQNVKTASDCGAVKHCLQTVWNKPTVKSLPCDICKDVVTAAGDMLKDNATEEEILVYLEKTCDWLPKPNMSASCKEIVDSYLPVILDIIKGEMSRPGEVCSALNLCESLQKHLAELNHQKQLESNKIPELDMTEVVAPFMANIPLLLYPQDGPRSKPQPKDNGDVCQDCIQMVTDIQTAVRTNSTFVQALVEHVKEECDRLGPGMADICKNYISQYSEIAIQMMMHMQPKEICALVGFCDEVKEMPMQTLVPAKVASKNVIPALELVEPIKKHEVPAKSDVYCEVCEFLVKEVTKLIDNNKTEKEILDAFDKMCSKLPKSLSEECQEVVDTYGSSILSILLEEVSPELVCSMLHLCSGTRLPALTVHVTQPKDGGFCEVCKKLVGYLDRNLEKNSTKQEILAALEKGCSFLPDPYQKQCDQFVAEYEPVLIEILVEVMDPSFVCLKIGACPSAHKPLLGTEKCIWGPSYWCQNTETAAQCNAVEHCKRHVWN
UniProt P05771, whole entry, looked up: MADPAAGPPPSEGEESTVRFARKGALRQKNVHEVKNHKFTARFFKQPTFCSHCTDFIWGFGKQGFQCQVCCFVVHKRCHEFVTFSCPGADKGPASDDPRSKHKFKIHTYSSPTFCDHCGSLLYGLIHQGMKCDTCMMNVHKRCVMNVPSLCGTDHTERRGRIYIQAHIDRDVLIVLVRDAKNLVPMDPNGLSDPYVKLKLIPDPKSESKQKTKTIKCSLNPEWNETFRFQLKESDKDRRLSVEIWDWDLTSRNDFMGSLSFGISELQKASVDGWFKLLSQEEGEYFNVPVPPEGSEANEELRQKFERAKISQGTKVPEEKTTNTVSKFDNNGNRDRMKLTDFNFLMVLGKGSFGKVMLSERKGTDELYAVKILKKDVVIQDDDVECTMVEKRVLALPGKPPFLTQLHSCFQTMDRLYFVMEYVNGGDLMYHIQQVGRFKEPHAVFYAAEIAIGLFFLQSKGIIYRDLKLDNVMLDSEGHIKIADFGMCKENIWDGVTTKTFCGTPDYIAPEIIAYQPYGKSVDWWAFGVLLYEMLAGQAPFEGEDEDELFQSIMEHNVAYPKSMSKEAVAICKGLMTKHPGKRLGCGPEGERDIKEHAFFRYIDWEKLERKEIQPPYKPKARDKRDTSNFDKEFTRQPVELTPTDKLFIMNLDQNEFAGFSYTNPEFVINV
UniProt P04899, whole entry: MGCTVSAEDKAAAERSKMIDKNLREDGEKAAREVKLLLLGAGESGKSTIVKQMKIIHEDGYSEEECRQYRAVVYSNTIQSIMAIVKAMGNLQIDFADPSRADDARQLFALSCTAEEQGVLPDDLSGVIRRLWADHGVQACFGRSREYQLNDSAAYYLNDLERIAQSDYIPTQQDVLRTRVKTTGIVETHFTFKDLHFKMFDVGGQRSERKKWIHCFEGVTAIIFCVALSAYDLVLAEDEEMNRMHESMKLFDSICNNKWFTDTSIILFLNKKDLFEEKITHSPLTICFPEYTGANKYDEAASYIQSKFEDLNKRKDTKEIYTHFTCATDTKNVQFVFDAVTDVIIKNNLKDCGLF
UniProt P02042: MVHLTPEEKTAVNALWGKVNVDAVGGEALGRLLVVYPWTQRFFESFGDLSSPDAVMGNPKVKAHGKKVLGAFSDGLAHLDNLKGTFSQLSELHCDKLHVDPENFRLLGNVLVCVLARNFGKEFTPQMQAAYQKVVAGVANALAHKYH
UniProt P06493, whole entry, looked up: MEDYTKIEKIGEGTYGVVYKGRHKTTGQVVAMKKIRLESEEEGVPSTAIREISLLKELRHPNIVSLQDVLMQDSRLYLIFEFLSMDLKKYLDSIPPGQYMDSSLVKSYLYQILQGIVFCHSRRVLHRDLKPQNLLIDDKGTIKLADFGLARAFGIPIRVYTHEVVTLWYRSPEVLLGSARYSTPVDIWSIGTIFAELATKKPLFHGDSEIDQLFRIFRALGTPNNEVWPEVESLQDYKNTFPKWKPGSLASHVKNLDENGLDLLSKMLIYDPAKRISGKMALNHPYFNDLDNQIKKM
UniProt P04040: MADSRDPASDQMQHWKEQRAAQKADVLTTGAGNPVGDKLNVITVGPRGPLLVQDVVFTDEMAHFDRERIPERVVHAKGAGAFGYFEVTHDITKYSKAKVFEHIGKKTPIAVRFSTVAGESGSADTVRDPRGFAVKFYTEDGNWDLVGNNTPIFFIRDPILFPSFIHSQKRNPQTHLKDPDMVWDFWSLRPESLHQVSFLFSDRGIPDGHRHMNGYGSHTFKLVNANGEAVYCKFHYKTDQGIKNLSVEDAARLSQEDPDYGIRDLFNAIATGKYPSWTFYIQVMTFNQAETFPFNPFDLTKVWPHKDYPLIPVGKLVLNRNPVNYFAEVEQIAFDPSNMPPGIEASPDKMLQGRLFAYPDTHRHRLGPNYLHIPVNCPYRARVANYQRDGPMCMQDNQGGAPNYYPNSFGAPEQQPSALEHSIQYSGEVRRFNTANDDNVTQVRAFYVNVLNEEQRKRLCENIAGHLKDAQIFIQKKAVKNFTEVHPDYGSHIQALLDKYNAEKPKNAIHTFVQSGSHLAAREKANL
UniProt P09211: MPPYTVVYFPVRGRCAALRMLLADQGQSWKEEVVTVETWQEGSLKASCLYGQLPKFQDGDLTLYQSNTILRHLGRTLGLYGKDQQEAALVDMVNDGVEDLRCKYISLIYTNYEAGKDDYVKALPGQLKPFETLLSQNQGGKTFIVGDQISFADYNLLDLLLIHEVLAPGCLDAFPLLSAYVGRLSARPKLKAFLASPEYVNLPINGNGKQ
UniProt P0DPB6, whole entry: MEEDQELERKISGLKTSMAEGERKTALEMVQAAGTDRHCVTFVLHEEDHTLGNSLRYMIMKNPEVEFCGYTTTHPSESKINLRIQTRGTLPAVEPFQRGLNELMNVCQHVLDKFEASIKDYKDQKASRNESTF

The list shows a part of the results. Most values lie at the level of the controls, where differences are scatter.

Compound in the assay: Cc1nc(Nc2ncc(C(=O)Nc3c(C)cccc3Cl)s2)cc(N2CCN(CCO)CC2)n1 [dasatinib]
The experiment in a line: log2 fold change of tryptic peptide abundance, ligand vs vehicle (limited proteolysis) (log2 ratio); higher = more trypsin-susceptible (destabilized). The conditions noted are these: ligand concentration: 5 uM; sample: K562 cleared lysate.
As for “C8orf88 (peptide sequence: LSSVSICR, peptide start residue: 87) (UniProt P0DMB2)”, the log2 fold change came out at 0.078. The same measure for “RB1 (peptide sequence: LRFDIEGSDEADGSKHLPGESK, peptide start residue: 875) (UniProt P06400)”: -0.821; for “CFH (peptide sequence: TGESVEFVCKR, peptide start residue: 1193) (UniProt P08603)”: 0.0192; for “IFI30 (peptide sequence: GMQLMHANAQR, peptide start residue: 184) (UniProt P13284)”: 0.393.

Turning to “SRF (peptide sequence: IKMEFIDNK, peptide start residue: 146) (UniProt P11831)”, the log2 fold change came to 0.125.

With “MAPT (peptide sequence: IGSLDNITHVPGGGNK, peptide start residue: 671) (UniProt P10636)”, the log2 fold change was -0.144.

For “UBL4A (peptide sequence: RLSDYSIGPNSK, peptide start residue: 55) (UniProt P11441)”, the log2 fold change came to 0.455. The same measure for “CSTB (peptide sequence: VHVGDEDFVHLR, peptide start residue: 57) (UniProt P04080)”: -0.296. The same measure for “HBZ (peptide sequence: AHGSKVVAAVGDAVK, peptide start residue: 58) (UniProt P02008)”: -0.206; for “UniProt P10155 (peptide sequence: LSHLKPSSEGLAIVTK, peptide start residue: 185)”: 0.332; for “IMPDH2 (peptide sequence: HGFCGIPITDTGRMGSR, peptide start residue: 137) (UniProt P12268)”: 0.546. As to “APOC1 (peptide sequence: IKQSELSAK, peptide start residue: 55) (UniProt P02654)”, the log2 fold change was -0.207. Then “MYL1 (peptide sequence: HVLATLGEK, peptide start residue: 157) (UniProt P05976)”, with -0.154.

As to “PROS1 (peptide sequence: SFQTGLFTAAR, peptide start residue: 91) (UniProt P07225)”, the log2 fold change came to 0.609. Then “PSAP (peptide sequence: GSAVWCQNVK, peptide start residue: 28) (UniProt P07602)”, with 0.0736; and “GBA (peptide sequence: ATLGETHR, peptide start residue: 361) (UniProt P04062)”, with 0.321.

For “PRKCB (peptide sequence: KDVVIQDDDVECTMVEKR, peptide start residue: 375) (UniProt P05771)”, the log2 fold change was 0.263. The same measure for “GNAI2 (peptide sequence: MIDKNLR, peptide start residue: 18) (UniProt P04899)”: -0.264. For the target “HBD (peptide sequence: VNVDAVGGEALGR, peptide start residue: 19) (UniProt P02042)”, the log2 fold change came to 0.0196. On to “UniProt P06493 (peptide sequence: VYTHEVVTLWYR, peptide start residue: 159)”, for which the log2 fold change amounted to 0.119. The same measure for “UniProt P0CJ79 (peptide sequence: CDVCGKDFNQKR, peptide start residue: 244)”: -0.982; for “CAT (peptide sequence: LGPNYLHIPVNCPYR, peptide start residue: 366) (UniProt P04040)”: 0.155; for “TPR (peptide sequence: LLVALRELGETR, peptide start residue: 553) (UniProt P12270)”: 1.47. With “GSTP1 (peptide sequence: MPPYTVVYFPVRGR, peptide start residue: 1) (UniProt P09211)”, the log2 fold change was 0.383. Regarding “DMD (peptide sequence: EGPYTVDAIQK, peptide start residue: 2608) (UniProt P11532)”, the log2 fold change amounted to 0.564. The same measure for “ATP1A1 (peptide sequence: DKYEPAAVSEQGDKK, peptide start residue: 8) (UniProt P05023)”: 0.0844.

On to “SP1 (peptide sequence: QHICHIQGCGK, peptide start residue: 625) (UniProt P08047)”, for which the log2 fold change was -0.0955.

With “POLR1D (peptide sequence: GTLPAVEPFQR, peptide start residue: 88) (UniProt P0DPB6)”, the log2 fold change was -0.129.
